According to paper PMC8384837:
Where a chain is given by its changes, count along the chain named. The list shows a part of the results.

Assays:
Conditions in all cases: yeast three-hybrid, YBZ-1, SC-Leu-His + 0.5 mM 3-AT, 4 days
[1] = biological target: T1, PUM1 PUF domain R1-GGR S863G + R864G + Q867R (Homo sapiens) (UniProt Q14671)
T1 sequence: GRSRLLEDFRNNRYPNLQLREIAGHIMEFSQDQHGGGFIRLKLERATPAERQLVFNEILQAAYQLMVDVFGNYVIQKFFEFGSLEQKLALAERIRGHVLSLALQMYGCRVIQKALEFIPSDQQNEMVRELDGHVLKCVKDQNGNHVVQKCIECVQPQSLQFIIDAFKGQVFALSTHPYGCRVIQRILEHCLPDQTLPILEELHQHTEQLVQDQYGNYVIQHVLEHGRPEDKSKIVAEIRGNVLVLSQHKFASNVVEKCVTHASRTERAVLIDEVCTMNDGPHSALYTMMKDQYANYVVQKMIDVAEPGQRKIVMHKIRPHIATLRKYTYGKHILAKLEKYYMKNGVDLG

[2] = biological target: T2, PUM1 PUF domain R1-GLR S863G + R864L + Q867R (Homo sapiens) (UniProt Q14671)
T2 sequence: T1 sequence with G37L

[3] = biological target: T3, PUM1 PUF domain R1-GMR S863G + R864M + Q867R (Homo sapiens) (UniProt Q14671)
T3 sequence: T1 sequence with G37M

[4] = biological target: T4, PUM1 PUF domain R1-KRD S863K + Q867D (Homo sapiens) (UniProt Q14671)
T4 sequence: T1 sequence with G36K, G37R, R40D

[5] = biological target: T5, PUM1 PUF domain R1-LRR S863L + Q867R (Homo sapiens) (UniProt Q14671)
T5 sequence: T1 sequence with G36L, G37R

[6] = biological target: T6, PUM1 PUF domain R1-MRR S863M + Q867R (Homo sapiens) (UniProt Q14671)
T6 sequence: T1 sequence with G36M, G37R

[7] = biological target: T7, PUM1 PUF domain R1-MWR S863M + R864W + Q867R (Homo sapiens) (UniProt Q14671)
T7 sequence: T1 sequence with G36M, G37W

[8] = biological target: T8, PUM1 PUF domain R1-MYR S863M + R864Y + Q867R (Homo sapiens) (UniProt Q14671)
T8 sequence: T1 sequence with G36M, G37Y

[9] = biological target: T9, PUM1 PUF domain R1-NVR S863N + R864V + Q867R (Homo sapiens) (UniProt Q14671)
T9 sequence: T1 sequence with G36N, G37V

[10] = biological target: T10, PUM1 PUF domain R1-RGI S863R + R864G + Q867I (Homo sapiens) (UniProt Q14671)
T10 sequence: T1 sequence with G36R, R40I

[11] = biological target: T11, PUM1 PUF domain R1-RGM S863R + R864G + Q867M (Homo sapiens) (UniProt Q14671)
T11 sequence: T1 sequence with G36R, R40M

[12] = biological target: T12, PUM1 PUF domain R1-RHR S863R + R864H + Q867R (Homo sapiens) (UniProt Q14671)
T12 sequence: T1 sequence with G36R, G37H

[13] = biological target: T13, PUM1 PUF domain R1-RKR S863R + R864K + Q867R (Homo sapiens) (UniProt Q14671)
T13 sequence: T1 sequence with G36R, G37K

[14] = biological target: T14, PUM1 PUF domain R1-RLS S863R + R864L + Q867S (Homo sapiens) (UniProt Q14671)
T14 sequence: T1 sequence with G36R, G37L, R40S

[15] = biological target: T15, PUM1 PUF domain R1-RLV S863R + R864L + Q867V (Homo sapiens) (UniProt Q14671)
T15 sequence: T1 sequence with G36R, G37L, R40V

[16] = biological target: T16, PUM1 PUF domain R1-RRA S863R + Q867A (Homo sapiens) (UniProt Q14671)
T16 sequence: T1 sequence with G36R, G37R, R40A

[17] = biological target: T17, PUM1 PUF domain R1-RVV S863R + R864V + Q867V (Homo sapiens) (UniProt Q14671)
T17 sequence: T1 sequence with G36R, G37V, R40V

[18] = biological target: T18, PUM1 PUF domain R1-SWR R864W + Q867R (Homo sapiens) (UniProt Q14671)
T18 sequence: T1 sequence with G36S, G37W

[19] = biological target: T19, PUM1 PUF domain R1-VRR S863V + Q867R (Homo sapiens) (UniProt Q14671)
T19 sequence: T1 sequence with G36V, G37R

[20] = biological target: T20, PUM1 PUF domain R1-VWR S863V + R864W + Q867R (Homo sapiens) (UniProt Q14671)
T20 sequence: T1 sequence with G36V, G37W

GGCUAGAACUAGUGGAUCCCCCGGCGCCCGGCGGCUCGAGCCCGGGUAAGUGUAAAUGGUCUGCAUGCCGCCGGGCGCCAUGCCUGCAGGUCGACUCUAGAAAACAUG
binding signal (log2 enrichment (interaction score)) [1]: -0.74
binding signal (log2 enrichment (interaction score)) [2]: -0.65
binding signal (log2 enrichment (interaction score)) [3]: -0.3
binding signal (log2 enrichment (interaction score)) [4]: -0.24
binding signal (log2 enrichment (interaction score)) [5]: -0.33
binding signal (log2 enrichment (interaction score)) [6]: -0.76
binding signal (log2 enrichment (interaction score)) [7]: -0.36
binding signal (log2 enrichment (interaction score)) [8]: -0.3
binding signal (log2 enrichment (interaction score)) [9]: -0.53
binding signal (log2 enrichment (interaction score)) [10]: -0.47
binding signal (log2 enrichment (interaction score)) [11]: -0.64
binding signal (log2 enrichment (interaction score)) [12]: -0.44
binding signal (log2 enrichment (interaction score)) [13]: -0.68
binding signal (log2 enrichment (interaction score)) [14]: -0.28
binding signal (log2 enrichment (interaction score)) [15]: -0.73
binding signal (log2 enrichment (interaction score)) [16]: -0.33
binding signal (log2 enrichment (interaction score)) [17]: -0.29
binding signal (log2 enrichment (interaction score)) [18]: -0.23
binding signal (log2 enrichment (interaction score)) [19]: -0.73
binding signal (log2 enrichment (interaction score)) [20]: -0.47
